Measured values as given in patent US20230212304A1.
Residue numbers refer to the chain shown, from its start. These are yes or no findings as the source states them, for the method shown. Some entries that bind do so weakly or less than the wild type.

Protein sequences, listed by entry. Tags and fused reporters are not part of them. Lines headed by an entry give the natural chain unless they say otherwise; changes in a name come on top. Chains listed by the source or under a name are the forms on record and can include a tag or linker.
cynomolgus monkey CTLA4-his protein (Acro biosystems, Cat#CT4-C5227) (G7PL88, form named): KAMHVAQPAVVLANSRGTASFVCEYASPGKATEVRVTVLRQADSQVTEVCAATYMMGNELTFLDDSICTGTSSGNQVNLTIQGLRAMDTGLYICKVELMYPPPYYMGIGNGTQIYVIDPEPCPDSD

B1: huC1D1-V8 (antibody, human IgG4 S228P, kappa, V domains shown)
VH: EVQLVESGGGLVQPGRSLRLSCTASGFTFSDNWMNWVRQAPGKGLEWVGQIRNKPYNYETYYSDSVKGRFTISRDDSKSIAYLQMNSLKTEDTAVYYCTGGMDYWGQGTTVTVSS
VL: DIQMTQSPSSLSASVGDRVTITCGASEIIYGALNWYQQKPGKSPKLLIYGATNLADGVPSRFSGSGSGTDFTLTISSLQPEDVATYYCQKILSPPPWTFGGGTKVEIKR
B2: huD1D5-V9 (antibody, human IgG4 S228P, kappa, V domains shown)
VH: EVQLVESGGGLVKPGGSLRLSCAASGFTFSDYGMAWVRQAPGKGPEWVAFISNLAYSVYYADTETGRFTISRDDAKNSLYLQMNSLRAEDTAVYYCARSGLPYAMDYWGQGTTVTVSS
VL: DIQMTQSPSSLSASVGDRVTITCRASQDISNYLNWYQQKPGKVPKLLIYYISRLHSGVPSRFSGSGSGTDFTLTISSLQPEDVATYYCQQGRMLPWTFGGGTKVEIKR
B3: mouse anti-CTLA4 monoclonal antibody D2A4 (antibody, V domains shown)
VH: QVQLQQPGAELVKPGSSVNLSCKASGYTFTSYWVHWVKQGPGRGLEWIGRIDPNRGGTYYNENFKTKAALTVDSPSSTAYMHLSSLTSEDSAVYYCARGGLNYYALDYWGQGTSVTVSS
VL: DIQMTQSPASLFASLGETVTITCRASENIYSYLAWYQQKQGKSPQLLVYNANTLTEGVPSSFSGSGSGTQFSLKINTLQPEDFGTYYCQHHYGIPFTFGSGTKLEIK
B4: mouse anti-CTLA4 monoclonal antibody C1D1 (antibody, V domains shown)
VH: EVKLDETGGGLVQPGRPLKLSCVASGFTFSDNWMNWVRQSPEKGLEWVAQIRNKPYNYETYYSDSVKGRFTISRDDSKSSVYLQMNNLRVEDMGIYYCTGGMDYWGQGTSVTVSS
VL: DIQMTQSPASLSASVGETVTITCGASEIIYGALNWYQQKQGKSPQLLIYGATNLADGMSSRFSGSGSGRQYSLKISSLHPDDAATYYCQKILSPPPWTFGGGTKLEIK
B5: mouse anti-CTLA4 monoclonal antibody C1G4 (antibody, V domains shown)
VH: B4 VH with L18I, V90T, E91K, M102F, D103T, S110L, S115A
VL: DIQMTQSPPSLSASVGETVTITCGASENIYGGLNWYQRKQGKSPQLLIYGATNLADGMSSRFSGSGSGRQYSLKISRLHPDDVATYYCQNVLNTPYTFGGGTKLEIK
B6: mouse anti-CTLA4 monoclonal antibody D1B6 (antibody, V domains shown)
VH: EVQLQQSGPELVKPGASVKLSCKASGNTFTTYVLNWVKQKPGQGLEWIGYFNPYNDGIKYNEKFKGKATLTSDKSSNTAYMELSSLTSEDSAVYYCARFEGGGYAMDYWGQGTSVTVSS
VL: DIVLTQSPASLAVSLGQRATISCRASQSVGTSRNTYIHWYQQKLGQPPKLLIKYASDLESGVPARFSGSGSGTDFTLNIHPVEEEDTATYYCQHSWEIPYTFGGGTKLEIK
B7: mouse anti-CTLA4 monoclonal antibody D1D5 (antibody, V domains shown)
VH: B2 VH with Q3K, R19K, D73E, S78T, Q82E, N84S, A88S, V93M, T113S
VL: DIQMTQTTSSLSASLGDRVTISCRASQDISNYLNWYQQKPDGTVKLLIYYISRLHSGVPSRFSGSGSGTDFSLTISNLEQEDIATYFCQQGRMLPWTFGGGTRLEIK
B8: mouse anti-CTLA4 monoclonal antibody D1H3 (antibody, V domains shown)
VH: QVQLQQPGAELVNPGASVKLSCKASGYTFTSYWLHWVKQRPGRGLEWIGRIDPNRGTIYYNEKFNNKATVTVDKPSNTAYMQLSRLTLEDSAVYYCARGGSNFYAMDYWGQGTSVTVSS
VL: DIQMTQSPASLSASVGETVTITCRTSENIYSYLAWYQQKQGESPQLLVYNAKTLAEGVPSRFSGSGSGTQFSLKINSLQPEDFGSYYCQNHDGIPFTFGSGTKLEIK
B9: mouse anti-CTLA4 monoclonal antibody D1H4 (antibody, V domains shown)
VH: EVQLQQSGPVLVKPGASVKMSCKASGYTFTDYYMNWVKQSHGKSLEWIGAINPDHGGSSYNQKFKGKATLTVDKSSSTAYMELNSLTSEDSAVYYCARDGSIHYVMDDWGQGTSVTVSS
VL: DIVMSQSPSSLTVSAGDKVTMSCKSSQSLLHSGNQKNYLAWYQQKPWQPPKLLIYGASTRESGVPDRFTGSGSGTDFTLTISSVQAEDLAVYYCQNDYGYPYTFGGGTKLEIK
B10: mouse anti-CTLA4 monoclonal antibody D1G6 (antibody, V domains shown)
VH: B6 VH with G57A, N77S
VL: B6 VL with R33S, N34Y, T35S, L44P
B11: mouse anti-CTLA4 monoclonal antibody D1B8 (antibody, V domains shown)
VH: QIQLQQSGPELVKPGASVKISCKASGYTFTDYYINWVKQRPGQGLEWIGWIYPGNNNTRYNEKFKGKATLTIDTSSSTAFMHLSSLTSEDSAVYFCARYYFDYWGQGTTLTVSS
VL: DIQMTQSPSSLSASLGERISLTCRASQEITGYLSWLQQKPDGTIKRLIYAASTLDSGVPQRFSGSRSGSDYSLTISSLESEDFADYYCLQYASYPRTFGGGTKLEIK
B12: mouse anti-CTLA4 monoclonal antibody D1A7 (antibody, V domains shown)
VH: QVTLKESGPGMLQPSQTLSLTCSFSGFSLSSSKLGVGWIRQPAGKGLEWLAHIWWNDDNYYVPSLKSRLTISKDTSNNQVFLKITNVDAADTATYYCVQVPYYTTQPWFAYWGQGTLVTVSA
VL: DIQMTQSPASLSASVGETVTITCRASGNIHNYLAWYLQNQGRSPQLLVYNTETLADGVSSRFSGSGSGTQYFLKISSLQPEDFGTYYCQHLWSTPWTFGGGTKLEIK

Target: cynomolgus monkey CTLA4-his protein (Acro biosystems, Cat#CT4-C5227) (cynomolgus monkey) (UniProt G7PL88)
Assay: SPR, Biacore

How did the binding turn out when B1 was run?
The binding was “binds”.

B2 was tested. Which binding did it give?
Its binding is “binds”.

Target: cynomolgus monkey CTLA4-his protein (Acro biosystems, Cat#CT4-C5227) (cynomolgus monkey) (UniProt G7PL88)
Assay: SPR, Biacore T200

Which binding does the source give for B3 here?
The binding was “binds”.

With B4 as the binder, how does the binding read?
Its binding is “binds”.

With B5 as the binder, how does the binding read?
The binding was “binds”.

For B6, which binding is on record?
The binding was “binds”.

With B7 as the binder, how does the binding read?
Its binding is “binds”.

For B8, which binding is on record?
The binding was “binds”.

With B9 as the binder, how does the binding read?
Its binding is “binds”.

B10 was tested. Which binding did it give?
The binding was “binds”.

How did the binding turn out when B11 was run?
The binding was “binds”.

How did the binding turn out when B12 was run?
The binding was “binds”.
